# Laboratory results: ChEMBL document CHEMBL4303122, “Identification of potential treatments for COVID-19 through artificial intelligence-enabled phenomic analysis of human cells infected with SARS-CoV-2” (2020)
# In all, about 1,600 compounds were measured (“Hit score”: median about 0.13, highest 2% from about 0.46 on). This is one part of the list.
# Test system: SARS-CoV-2
# Test: Antiviral activity against SARS-CoV-2 (USA-WA1/2020 strain) measured by imaging in HRCE cells at MOI 0.4 after 96 hrs (reported as hit score from 0-1 for on-disease vs off-disease activity: scores >0.6 considered hits)
# Assay type: functional, Homo sapiens
row,Structure (SMILES),Hit score
1,C[C@H](O)C(=O)Nc1c(I)c(C(=O)NC(CO)CO)c(I)c(C(=O)NC(CO)CO)c1I [IOPAMIDOL],0.1622
2,CN(C)C(=O)Oc1cc(OC(=O)N(C)C)cc(C(O)CNC(C)(C)C)c1 (configuration not stated) [BAMBUTEROL],0.1323
3,CC1=Nc2ccc(Cl)cc2S(=O)(=O)N1 [DIAZOXIDE],0.1379
4,CC(C(=O)O)c1ccc(N2Cc3ccccc3C2=O)cc1 (configuration not stated) [INDOPROFEN],0.1093
5,CN(C)CCOc1ccc(/C(=C(/CCCl)c2ccccc2)c2ccccc2)cc1 [TOREMIFENE],0.1498
6,Cc1ccc(Cl)c(Nc2ccccc2C(=O)O)c1Cl [MECLOFENAMIC ACID],0.221
7,CCCc1nc(C)c2c(=O)nc(-c3cc(S(=O)(=O)N4CCN(CC)CC4)ccc3OCC)[nH]n12,0.1574
8,COc1cc2nccc(Oc3ccc(NC(=O)C4(C(=O)Nc5ccc(F)cc5)CC4)cc3)c2cc1OC [CABOZANTINIB],0.3291
9,CCN(CC)Cc1nccn1-c1ccc([N+](=O)[O-])cc1C(=O)c1ccccc1Cl [NIZOFENONE],0.2727
10,O=C(O)/C=C/c1ccc(Cn2ccnc2)cc1 [OZAGREL],0.1126
11,C[n+]1ccccc1/C=N/O.[Cl-] [PRALIDOXIME CHLORIDE],0.1477
12,CCCCNc1ccc(C(=O)OCCOCCOCCOCCOCCOCCOCCOCCOCCOC)cc1 [BENZONATATE],0.09156
13,CC(C)(Oc1ccc(C(=O)c2ccc(Cl)cc2)cc1)C(=O)O [FENOFIBRIC ACID],0.1298
14,COCCOC(=O)C1=C(C)NC(C)=C(C(=O)OC/C=C/c2ccccc2)C1c1cccc([N+](=O)[O-])c1 (configuration not stated) [CILNIDIPINE],0.1713
15,O=S1(=O)OC(c2ccc(O)cc2)(c2ccc(O)cc2)c2ccccc21 [PHENOLSULFONPHTHALEIN],0.07808
16,CCOc1nc2cccc(C(=O)O)c2n1Cc1ccc(-c2ccccc2-c2noc(=O)[nH]2)cc1 [AZILSARTAN],0.1513
17,CCn1nc(C(=O)O)c(=O)c2cc3c(cc21)OCO3 [CINOXACIN],0.1945
18,O=C(O)CCCc1ccccc1 [PHENYLBUTANOIC ACID],0.1706
19,CC(C)NCC(O)COc1ccc(CC(N)=O)cc1 (racemic) [ATENOLOL],0.2191
20,Cc1cnc(NC(=O)C2=C(O)c3ccccc3S(=O)(=O)N2C)s1 [MELOXICAM],0.07638
21,O=C(O)COC(=O)Cc1ccccc1Nc1c(Cl)cccc1Cl [ACECLOFENAC],-0.08079
22,CCN1CCN(c2cc3c(cc2F)c(=O)c(C(=O)O)cn3C2CC2)CC1 [ENROFLOXACIN],-0.1246
23,COc1cc(NS(C)(=O)=O)ccc1Nc1c2ccccc2nc2ccccc12 [AMSACRINE],-0.1254
24,C[C@]12C=CC(=O)C=C1CC[C@@H]1[C@@H]2C(=O)C[C@@]2(C)[C@H]1CC[C@]2(O)C(=O)CO [PREDNISONE],0.264
25,Cc1nnc(NS(=O)(=O)c2ccc(N)cc2)s1 [SULFAMETHIZOLE],0.1221
26,CCCCc1nc(Cl)c(C(=O)O)n1Cc1ccc(-c2ccccc2-c2nn[nH]n2)cc1 [CARBOXYLIC ACID METABOLITE],0.01747
27,C[C@H]1CN(C[C@H](Cc2ccccc2)C(=O)NCC(=O)O)CC[C@@]1(C)c1cccc(O)c1 [ALVIMOPAN],0.1062

# Copied from above: entries 15 to 16
row,Structure (SMILES),Hit score
15,O=S1(=O)OC(c2ccc(O)cc2)(c2ccc(O)cc2)c2ccccc21 [PHENOLSULFONPHTHALEIN],0.07808
16,CCOc1nc2cccc(C(=O)O)c2n1Cc1ccc(-c2ccccc2-c2noc(=O)[nH]2)cc1 [AZILSARTAN],0.1513
